The target of experiment [1] is GST-VHS-GAT domain of GGA3 (UniProt Q9NZ52). Nature of the experiment: pull-down; immobilised GST-VHS-GAT domain of GGA3 incubated with GDPβS- or GTPγS-loaded his6WT-Arf1 or his6ΔCT-Arf1; western blot with anti-Arf1 or anti-GST; both purified. For orientation: In western blotting, separated proteins are transferred to a membrane and probed.
The target is the same in experiment [2]. Kind of experiment: pull-down; extracts of cultured neurons (with or without NMDA; control or GIT1 siRNA) incubated with immobilised GST-VHS-GAT; western blot with anti-Arf1 and anti-GST; only the target purified.

Chains of the proteins cited; added tags and fusions are not shown. Lines headed by an entry give the natural chain unless they say otherwise; changes in a name come on top.
UniProt Q9NZ52: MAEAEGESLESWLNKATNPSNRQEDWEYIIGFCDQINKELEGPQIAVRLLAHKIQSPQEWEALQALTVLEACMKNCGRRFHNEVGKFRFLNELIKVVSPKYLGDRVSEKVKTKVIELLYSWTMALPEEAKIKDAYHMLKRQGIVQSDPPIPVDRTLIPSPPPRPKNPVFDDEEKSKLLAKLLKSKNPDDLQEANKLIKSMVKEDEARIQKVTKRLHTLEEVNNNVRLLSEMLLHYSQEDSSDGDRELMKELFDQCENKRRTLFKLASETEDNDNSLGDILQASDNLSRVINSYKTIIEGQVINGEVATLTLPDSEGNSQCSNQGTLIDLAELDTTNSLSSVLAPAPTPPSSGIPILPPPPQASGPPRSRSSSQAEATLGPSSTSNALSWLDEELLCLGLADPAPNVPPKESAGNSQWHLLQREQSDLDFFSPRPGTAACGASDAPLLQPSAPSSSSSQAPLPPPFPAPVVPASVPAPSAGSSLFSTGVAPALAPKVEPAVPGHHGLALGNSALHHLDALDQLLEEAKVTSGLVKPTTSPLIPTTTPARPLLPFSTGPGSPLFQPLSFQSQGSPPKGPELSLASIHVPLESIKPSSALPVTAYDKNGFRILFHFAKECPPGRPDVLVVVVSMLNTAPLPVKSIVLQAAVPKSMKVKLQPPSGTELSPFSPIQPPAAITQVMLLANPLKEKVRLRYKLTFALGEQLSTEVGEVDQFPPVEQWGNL
UniProt P84077: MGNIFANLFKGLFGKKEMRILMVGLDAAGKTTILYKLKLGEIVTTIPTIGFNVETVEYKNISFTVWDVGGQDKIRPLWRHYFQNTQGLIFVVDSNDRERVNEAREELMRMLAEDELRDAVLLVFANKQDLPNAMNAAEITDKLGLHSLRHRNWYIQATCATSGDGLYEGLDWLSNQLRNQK
UniProt P84079: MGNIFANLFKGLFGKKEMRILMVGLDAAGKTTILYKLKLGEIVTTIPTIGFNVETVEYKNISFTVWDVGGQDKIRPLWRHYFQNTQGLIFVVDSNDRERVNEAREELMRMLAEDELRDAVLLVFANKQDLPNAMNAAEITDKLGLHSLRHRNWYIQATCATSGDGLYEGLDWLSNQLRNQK

No constants are given. Whether binding was seen depends on the method and setting. Binding calls can cover weak binding; strength is not graded here. For part of these data: In cells and extracts the contact can be indirect.

As to “his6-Arf1 (wild type) (from UniProt P84077 1-181)”, in experiment [1], the binding entry is given as “binds”.

Turning to “Arf1 (endogenous, cultured neurons) (from UniProt P84079 1-181)”, the binding entry in experiment [2] was “binds”.

Regarding “his6-ΔCT-Arf1 (from UniProt P84077 1-177) (domain or fragment)”, the binding result in experiment [1] was “binds”.

The record behind these values is paper PMC3725416.
